Data source: PubChem BioAssay AID504793 (Drosophila RNAi Screening Center, 2011)

- Purpose: 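Knock-downs allowing continued mitosis even though DNA is damaged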 (primary screen)
- Cells: Drosophila S2R+ cells
- Reagent: long dsRNA against Drosophila genes, about 0.25 µg dsRNA per well
- Timing: 4 days of dsRNA, then 4 hours of drug before read-out
- Treatment: doxorubicin 0.5 µM for 4 hours to cause double-strand breaks, in cells also given a low, harmless dose of dsRNA against nbs to sensitise the assay
- Detection: 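Mitotic index as the number of phospho-histone H3-positive cells in each well following doxorubicin, given as raw counts without normalisation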
- Reading the numbers: mitotic cells: higher = more cells in mitosis, weaker G2 arrest
- Hit rule: 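Genes are called active only when high mitotic counts were reproduced with independent dsRNAs and mitosis was checked for delay without damage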
- Calls: active = confirmed in follow-up tests; inactive = not confirmed
The screen tested about 23,000 reagents; this is an unselected part of those with a known target gene and a result. Of all reagents, 62 (0.27%) got an active call. 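Calls come from follow-up tests whose scores are not deposited, so confirmed genes may have low counts here; counts are not normalised per plate.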 Raw values vary from plate to plate and are shown uncorrected. Reagents against one gene are numbered here. Names joined by + are all predicted targets of the reagent.

The first 5 records, to show the layout:
| target gene | dsRNA no. | mitotic cells, replicate 1 | mitotic cells, replicate 2 | call |
| --- | --- | --- | --- | --- |
| Obp83cd (Odorant-binding protein 83cd) | 1 | 8 | – | inactive |
| CG13168 | 1 | 7 | – | inactive |
| CG9447 | 1 | 10 | – | inactive |
| CG14883 | 1 | 5 | – | inactive |
| trn (tartan) | 1 | 4 | – | inactive |

The list itself, from the first entry:
| target gene | dsRNA no. | mitotic cells, replicate 1 | mitotic cells, replicate 2 | call |
| --- | --- | --- | --- | --- |
| Obp83cd (Odorant-binding protein 83cd) | 1 | 8 | – | inactive |
| CG13168 | 1 | 7 | – | inactive |
| CG9447 | 1 | 10 | – | inactive |
| CG14883 | 1 | 5 | – | inactive |
| trn (tartan) | 1 | 4 | – | inactive |
| CG14085 | 1 | 5 | – | inactive |
| CG12020 | 1 | 5 | – | inactive |
| CG12020 | 2 | 4 | – | inactive |
| CG3253 | 1 | 11 | – | inactive |
| CG3253 | 2 | 5 | – | inactive |
| Uhg4 + snoRNA:Psi28S-2949 | 1 | 5 | – | inactive |
| CG8476 | 1 | 7 | – | inactive |
| CG8476 | 2 | 8 | – | inactive |
| Loxl2 (Lysyl oxidase-like 2) | 1 | 5 | – | inactive |
| bur (burgundy) | 1 | 3 | – | inactive |
| CG15553 | 1 | 10 | – | inactive |
| CG10581 | 1 | 3 | – | inactive |
| RagC-D (Ras-related GTP binding C/D) | 1 | 6 | – | inactive |
| Ptpmeg2 (Protein tyrosine phosphatase Meg2) | 1 | 10 | – | inactive |
| Ptpmeg2 (Protein tyrosine phosphatase Meg2) | 2 | 9 | – | inactive |
| Ptpmeg2 (Protein tyrosine phosphatase Meg2) | 3 | 10 | – | inactive |
| Ptpmeg2 (Protein tyrosine phosphatase Meg2) | 4 | 11 | – | inactive |
| CG31198 | 1 | 3 | – | inactive |
| Pak3 | 1 | 5 | – | inactive |
| Pak3 | 2 | 5 | – | inactive |
| ninaD (neither inactivation nor afterpotential D) | 1 | 3 | – | inactive |
| ninaD (neither inactivation nor afterpotential D) | 2 | 6 | – | inactive |
| CG10912 | 1 | 7 | – | inactive |
| CG10912 | 2 | 6 | – | inactive |
| CG31464 | 1 | 4 | – | inactive |
| CG11977 | 1 | 9 | – | inactive |
| CG34260 + cmpy | 1 | 6 | – | inactive |
| CG13587 | 1 | 5 | – | inactive |
| CG13587 | 2 | 2 | – | inactive |
| CG8654 | 1 | 7 | – | inactive |
| CG4866 | 1 | 11 | – | inactive |
| CG6287 | 1 | 4 | – | inactive |
| CG6287 | 2 | 3 | – | inactive |
| DIP-eta (Dpr-interacting protein eta) | 1 | 9 | – | inactive |
| CG32086 | 1 | 6 | – | inactive |
| flip (flippy) | 1 | 7 | – | inactive |
| Prosbeta5 (Proteasome beta5 subunit) | 1 | 151 | – | inactive |
| Prosbeta5 (Proteasome beta5 subunit) | 2 | 77 | – | inactive |
| CG3021 | 1 | 18 | – | inactive |
| CG3021 | 2 | 10 | – | inactive |
| CG40006 | 1 | 4 | – | inactive |
| CG40006 | 2 | 1 | – | inactive |
| CG40006 | 3 | 9 | – | inactive |
| CG40006 | 4 | 7 | – | inactive |
| CG6195 | 1 | 5 | – | inactive |
| CG6195 | 2 | 4 | – | inactive |
| APC10 (Anaphase Promoting Complex subunit 10) | 1 | 45 | – | inactive |
| CG31008 | 1 | 13 | – | inactive |
| CG31008 | 2 | 3 | – | inactive |
| CG18596 | 1 | 8 | – | inactive |
| Tnpo-SR (Transportin-Serine/Arginine rich) | 1 | 7 | – | inactive |
| CG11409 | 1 | 6 | – | inactive |
| CG11409 | 2 | 8 | – | inactive |
| Arp10 (Actin-related protein 10) | 1 | 21 | 18 | inactive |
| Arp10 (Actin-related protein 10) | 2 | 6 | – | inactive |
| Rab39 | 1 | 5 | – | inactive |
| Utx (Utx histone demethylase) | 1 | 8 | – | inactive |
| Kebab (Kinetochore and EB1 associated basic protein) | 1 | 3 | – | inactive |
| Kebab (Kinetochore and EB1 associated basic protein) | 2 | 2 | – | inactive |
| Non3 (Novel nucleolar protein 3) | 1 | 8 | – | inactive |
| Ir94e (Ionotropic receptor 94e) | 1 | 14 | – | inactive |
| CG7691 | 1 | 6 | – | inactive |
| CG32176 | 1 | 9 | – | inactive |
| CG32176 | 2 | 6 | – | inactive |
| Rif1 (Rap1 interacting factor 1) | 1 | 3 | – | inactive |
| CG2021 | 1 | 5 | – | inactive |
| CG2021 | 2 | 3 | – | inactive |
| DCAF12 (DDB1 and CUL4 associated factor 12) | 1 | 13 | – | inactive |
| Rpn9 (Regulatory particle non-ATPase 9) | 1 | 33 | – | inactive |
| Rpn9 (Regulatory particle non-ATPase 9) | 2 | 20 | – | inactive |
| CNBP (CCHC-type zinc finger nucleic acid binding protein) | 1 | 3 | – | inactive |
| CNBP (CCHC-type zinc finger nucleic acid binding protein) | 2 | 9 | – | inactive |
| CNBP (CCHC-type zinc finger nucleic acid binding protein) | 3 | 8 | – | inactive |
| brm (brahma) | 1 | 1 | – | inactive |
| brm (brahma) | 2 | 18 | – | inactive |
| Twdlalpha (Tweedlealpha) | 1 | 11 | – | inactive |
| Twdlalpha (Tweedlealpha) | 2 | 4 | – | inactive |
| Yip1d1 (Yip1 domain-containing 1) | 1 | 3 | – | inactive |
| Lcch3 (Ligand-gated chloride channel homolog 3) | 1 | 13 | – | inactive |
| Lcch3 (Ligand-gated chloride channel homolog 3) | 2 | 14 | – | inactive |
| mAChR-B (muscarinic Acetylcholine Receptor, B-type) | 1 | 7 | – | inactive |
| mAChR-B (muscarinic Acetylcholine Receptor, B-type) | 2 | 6 | – | inactive |
| Slc25A46b | 1 | 5 | – | inactive |
| Task6 (TWIK-related acid-sensitive K[+] channel 6) | 1 | 3 | – | inactive |
| fau | 1 | 15 | – | inactive |
| fau | 2 | 12 | – | inactive |
| fau | 3 | 2 | – | inactive |
| fau | 4 | 4 | – | inactive |
| fau | 5 | 10 | – | inactive |
| fau | 6 | 14 | – | inactive |
| fau | 7 | 6 | – | inactive |
| Tmem131 (Transmembrane protein 131) | 1 | 8 | – | inactive |
| Tfb1 (Transcription factor B1) | 1 | 3 | – | inactive |
| RabX1 | 1 | 3 | – | inactive |
| CR11235 (pseudo) | 1 | 3 | – | inactive |
| CR11235 (pseudo) | 2 | 6 | – | inactive |
| CG32111 (retired record) | 1 | 6 | – | inactive |
| Rgl (Ral guanine nucleotide dissociation stimulator-like) | 1 | 8 | – | inactive |
| Spn88Eb (Serpin 88Eb) | 1 | 3 | – | inactive |
| fuss (fussel) | 1 | 7 | – | inactive |
| fuss (fussel) | 2 | 9 | – | inactive |
| barc (barricade) | 1 | 5 | – | inactive |
| CG13502 | 1 | 4 | – | inactive |
| CG13502 | 2 | 10 | – | inactive |
| Syngr (Synaptogyrin) | 1 | 3 | – | inactive |
